Reference: PubChem BioAssay AID504784 (Drosophila RNAi Screening Center, 2011)

Screen: 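Genome-wide knock-down for genes giving too much or too little stored lipid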 (primary screen)
Cell system: Drosophila Kc167 embryonic cells
Reagent: long dsRNA against Drosophila genes, about 250 ng dsRNA per well
Time to read-out: 4 days
Challenge: cells fed 400 µM oleic acid bound to BSA
Read-out: 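Cells imaged and segmented; ratio of lipid droplet area to nuclear area, log-transformed, then normalised as a B-score over the screen; higher means more stored lipid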
Scale: droplet/nuclear area B-score: higher = more stored lipid (overstorage)
In all, the deposit lists about 17,000 reagents; below is an unselected part of those with a known target gene and a result. 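Each column is one replicate's B-score; the combined score over replicates was not deposited, so single values may mislead.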 A plus sign joins genes that one reagent is predicted to hit. Further read-outs or replicates are left out here.

Nplp3 [DRSC09944] scored droplet/nuclear area B-score, replicate 1 = 0.151. Silencing of snama [DRSC04049] gave: droplet/nuclear area B-score, replicate 1 = -0.584. After knock-down of CG6398 [DRSC19992] the results were droplet/nuclear area B-score, replicate 1 = -0.408. Smr [DRSC19495] showed droplet/nuclear area B-score, replicate 1 = -3.56. Against Smr [DRSC20288] the deposit lists droplet/nuclear area B-score, replicate 1 = 0.0716. For Smr [DRSC22986] the deposit lists droplet/nuclear area B-score, replicate 1 = 0.517.

Silencing of CG30273 [DRSC22059] gave: droplet/nuclear area B-score, replicate 1 = -0.232. Depletion of CG13228 [DRSC06348] came out at: droplet/nuclear area B-score, replicate 1 = 1.09. CG30269 [DRSC04158] gave droplet/nuclear area B-score, replicate 1 = -0.153. After knock-down of CG8237 [DRSC07119], the record shows droplet/nuclear area B-score, replicate 1 = 2.27. Silencing of Sod3 [DRSC07324] resulted in: droplet/nuclear area B-score, replicate 1 = -1.1. With knock-down of CG15699 (retired record) [DRSC06571] the results were droplet/nuclear area B-score, replicate 1 = 1.44.

With knock-down of CG18563 [DRSC02676], the record shows droplet/nuclear area B-score, replicate 1 = -0.177. With knock-down of CG4293 [DRSC18557] the results were droplet/nuclear area B-score, replicate 1 = 1.1. Mp [DRSC10193] gave droplet/nuclear area B-score, replicate 1 = -0.0535. Mp [DRSC11029] scored droplet/nuclear area B-score, replicate 1 = -0.888. Mp [DRSC11030] scored droplet/nuclear area B-score, replicate 1 = -0.285. Knock-down of CG17528 [DRSC07761] resulted in: droplet/nuclear area B-score, replicate 1 = 0.562.

Silencing of MstProx + Mst84Da [DRSC12597] gave: droplet/nuclear area B-score, replicate 1 = 0.00145.

Reformatted: entries from further up.
{"gene":"Smr","amplicon":"DRSC20288","droplet/nuclear area B-score, replicate 1":0.0716}
{"gene":"Smr","amplicon":"DRSC22986","droplet/nuclear area B-score, replicate 1":0.517}
{"gene":"CG30273","amplicon":"DRSC22059","droplet/nuclear area B-score, replicate 1":-0.232}
{"gene":"CG13228","amplicon":"DRSC06348","droplet/nuclear area B-score, replicate 1":1.09}

Continued.
psq [DRSC07668] showed droplet/nuclear area B-score, replicate 1 = -4.27. psq [DRSC23094] scored droplet/nuclear area B-score, replicate 1 = 0.63. With knock-down of CG4650 [DRSC02767], the record shows droplet/nuclear area B-score, replicate 1 = -0.017. Knock-down of Gr10b [DRSC19477] gave: droplet/nuclear area B-score, replicate 1 = 0.774. CG13408 [DRSC13534] gave droplet/nuclear area B-score, replicate 1 = 3.11. With knock-down of CG13408 [DRSC14584], the record shows droplet/nuclear area B-score, replicate 1 = -0.909.

Against CG12746 [DRSC12218], the entry reads droplet/nuclear area B-score, replicate 1 = -2.3. Mrp4 [DRSC14931] scored droplet/nuclear area B-score, replicate 1 = -1.18. CG31344 [DRSC16069] scored droplet/nuclear area B-score, replicate 1 = -1.09. Knock-down of CG5968 [DRSC02916] gave: droplet/nuclear area B-score, replicate 1 = -0.148. Against tous [DRSC04464], the values are droplet/nuclear area B-score, replicate 1 = 1.11. CG32845 [DRSC07867] scored droplet/nuclear area B-score, replicate 1 = 0.917.

After knock-down of Obp83a [DRSC12362], the screen gave droplet/nuclear area B-score, replicate 1 = -0.0506. After knock-down of Inx5 [DRSC20051] the results were droplet/nuclear area B-score, replicate 1 = 0.0686. After knock-down of Fign [DRSC00592] the results were droplet/nuclear area B-score, replicate 1 = 0.0425. With knock-down of Pal2 [DRSC04507] the results were droplet/nuclear area B-score, replicate 1 = -0.0813. Silencing of CG3860 [DRSC04425] came out at: droplet/nuclear area B-score, replicate 1 = -0.463. Against CG8204 [DRSC07106], the entry reads droplet/nuclear area B-score, replicate 1 = -0.304.

After knock-down of DppIII [DRSC16241], the screen gave droplet/nuclear area B-score, replicate 1 = -0.464. Knock-down of CG32631 [DRSC19768] gave: droplet/nuclear area B-score, replicate 1 = -0.387. CG5056 [DRSC02808] gave droplet/nuclear area B-score, replicate 1 = -0.604. After knock-down of ema [DRSC14536], the screen gave droplet/nuclear area B-score, replicate 1 = -1.05. Silencing of Rpn8 [DRSC04624] gave: droplet/nuclear area B-score, replicate 1 = 0.905. For Oamb [DRSC13433] the deposit lists droplet/nuclear area B-score, replicate 1 = -1.1.

Knock-down of Oamb [DRSC15120] came out at: droplet/nuclear area B-score, replicate 1 = -0.387. Depletion of Oamb [DRSC16763] gave: droplet/nuclear area B-score, replicate 1 = -0.395. Knock-down of shn [DRSC05266] came out at: droplet/nuclear area B-score, replicate 1 = -1.27. Against shn [DRSC07681], the entry reads droplet/nuclear area B-score, replicate 1 = -0.957. With knock-down of H [DRSC16692], the record shows droplet/nuclear area B-score, replicate 1 = 1.52. For CG2201 [DRSC03721], the entry reads droplet/nuclear area B-score, replicate 1 = -2.77.

For CG17959 [DRSC18142], the values are droplet/nuclear area B-score, replicate 1 = 0.874. CG33218 (retired record) [DRSC22944] gave droplet/nuclear area B-score, replicate 1 = -0.591.
